# Laboratory results reported in the supplement of paper PMC8728848.
# Some of the results follow.
# B1: Blon2355mut (Bifidobacterium longum) (protein)
# chain: MVQEPTLEWHVIPEPTNVEPLVGTCSLPLSGTVVEQRGADDAEAVFARQLVDDIKRVCGGRWQVASGEVQREVTLRTSPSLDDWSYVLEVSPDGVVITGSGFEGVRDGVQTLRQIIRQIGLTIPCMVIRDRPAFSTRGYYLDVTRGRVPSMAWLKSWVDRLCFYKYNQFQLYIEHTFQFNGLSEVWRGADPLTSSDILELDSYCAARGIELVPSVSTFGHHYTALRTRQLRDLGEFPEDADRPFSLIERMTHHTLNITDERSYEFSTSLIDELMPLFRSRKFNICANETFDLGKGRSKQESAKRGVGAMYADFVERLCRHVDDRGHDVMVWADVALEHPEIIDTLPKNITWLNWQYEPNVDDGTTAALADAGATQMVCPAVWCWNALIPRIDDAWNNITRMARHGRAHDVSGMLVTDWGDFGHVNDPRMSVPGMIFGAQQSWNPDAELSEVDMLSRISTIEYGDHTGSVVGALRGASAKGGFSWSDLVTYLELDDGRGGCNTEIVRVMGCLEAYRNDLPQSGQARLADARVSMLRTLRDSILAGRELNGKLDDAAKDITQLLRVAGDPSSAAVWSLAIDGQRLLNRVGLALLAAHGVVRQDEAGIDAAKLADELECWTEQYSRLWHEVSRQSELARIQHVVWRAADVLRSI
# Experiments:
# Assay in all cases: glycan array binding signal (z-score within array); higher = stronger binding
# Settings in all cases: glycan notation: IUPAC condensed, linker removed
# [1] = target: GlcNAc(b1-3)Gal(b1-4)GlcNAc
# In short: (§1)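 The Consortium for Functional Glycomics database supplied 3228 glycan arrays, of which those lacking an available protein sequence were dropped. The binding signal, a within-array Z-score, was averaged across arrays of the same protein sequence and across linkers. Negative scores can be read as non-binding.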
# [2] = target: GlcNAc(b1-3)Gal(b1-4)GlcNAc(b1-2)Man(a1-3)[GlcNAc(b1-3)Gal(b1-4)GlcNAc(b1-2)Man(a1-6)]Man(b1-4)GlcNAc(b1-4)GlcNAc
# In short: as §1
# [3] = target: GlcNAc(b1-3)Gal(b1-4)GlcNAc(b1-2)Man(a1-3)[GlcNAc(b1-3)Gal(b1-4)GlcNAc(b1-2)Man(a1-6)]Man(b1-4)GlcNAc(b1-4)[Fuc(a1-6)]GlcNAc
# In short: as §1
# [4] = target: GlcNAc(b1-3)Gal(b1-4)GlcNAc(b1-2)[GlcNAc(b1-3)Gal(b1-4)GlcNAc(b1-6)]Man(a1-6)[GlcNAc(b1-3)Gal(b1-4)GlcNAc(b1-2)Man(a1-3)]Man(b1-4)GlcNAc(b1-4)GlcNAc
# In short: as §1
# [5] = target: GlcNAc(b1-3)Gal(b1-4)GlcNAc(b1-3)Gal(b1-4)GlcNAc
# In short: as §1
# [6] = target: GlcNAc(b1-3)Gal(b1-4)GlcNAc(b1-3)Gal(b1-4)GlcNAc(b1-2)Man(a1-3)[GlcNAc(b1-3)Gal(b1-4)GlcNAc(b1-3)Gal(b1-4)GlcNAc(b1-2)Man(a1-6)]Man(b1-4)GlcNAc(b1-4)GlcNAc
# In short: as §1
# [7] = target: GlcNAc(b1-3)Gal(b1-4)GlcNAc(b1-3)Gal(b1-4)GlcNAc(b1-2)Man(a1-3)[GlcNAc(b1-3)Gal(b1-4)GlcNAc(b1-3)Gal(b1-4)GlcNAc(b1-2)Man(a1-6)]Man(b1-4)GlcNAc(b1-4)[Fuc(a1-6)]GlcNAc
# In short: as §1
# [8] = target: GlcNAc(b1-3)Gal(b1-4)GlcNAc(b1-3)Gal(b1-4)GlcNAc(b1-2)[GlcNAc(b1-3)Gal(b1-4)GlcNAc(b1-3)Gal(b1-4)GlcNAc(b1-6)]Man(a1-6)[GlcNAc(b1-3)Gal(b1-4)GlcNAc(b1-3)Gal(b1-4)GlcNAc(b1-2)Man(a1-3)]Man(b1-4)GlcNAc(b1-4)[Fuc(a1-6)]GlcNAc
# In short: as §1
# [9] = target: GlcNAc(b1-3)Gal(b1-4)GlcNAc(b1-3)Gal(b1-4)GlcNAc(b1-3)Gal(b1-4)GlcNAc(b1-2)Man(a1-3)[GlcNAc(b1-3)Gal(b1-4)GlcNAc(b1-3)Gal(b1-4)GlcNAc(b1-3)Gal(b1-4)GlcNAc(b1-2)Man(a1-6)]Man(b1-4)GlcNAc(b1-4)GlcNAc
# In short: as §1
# [10] = target: GlcNAc(b1-3)Gal(b1-4)GlcNAc(b1-3)Gal(b1-4)GlcNAc(b1-3)Gal(b1-4)GlcNAc(b1-2)Man(a1-3)[GlcNAc(b1-3)Gal(b1-4)GlcNAc(b1-3)Gal(b1-4)GlcNAc(b1-3)Gal(b1-4)GlcNAc(b1-2)Man(a1-6)]Man(b1-4)GlcNAc(b1-4)[Fuc(a1-6)]GlcNAc
# In short: as §1
# [11] = target: GlcNAc(b1-3)Gal(b1-4)GlcNAc(b1-3)Gal(b1-4)GlcNAc(b1-3)Gal(b1-4)GlcNAc(b1-2)[GlcNAc(b1-3)Gal(b1-4)GlcNAc(b1-3)Gal(b1-4)GlcNAc(b1-3)Gal(b1-4)GlcNAc(b1-6)]Man(a1-6)[GlcNAc(b1-3)Gal(b1-4)GlcNAc(b1-3)Gal(b1-4)GlcNAc(b1-3)Gal(b1-4)GlcNAc(b1-2)Man(a1-3)]Man(b1-4)GlcNAc(b1-4)[Fuc(a1-6)]GlcNAc
# In short: as §1
# [12] = target: GlcNAc(b1-3)Gal(b1-4)GlcNAc(b1-3)Gal(b1-4)GlcNAc(b1-3)Gal(b1-4)GlcNAc(b1-3)Gal(b1-4)GlcNAc(b1-2)Man(a1-3)[GlcNAc(b1-3)Gal(b1-4)GlcNAc(b1-3)Gal(b1-4)GlcNAc(b1-3)Gal(b1-4)GlcNAc(b1-3)Gal(b1-4)GlcNAc(b1-2)Man(a1-6)]Man(b1-4)GlcNAc(b1-4)GlcNAc
# In short: as §1
# [13] = target: GlcNAc(b1-3)Gal(b1-4)GlcNAc(b1-3)Gal(b1-4)GlcNAc(b1-3)Gal(b1-4)GlcNAc(b1-3)Gal(b1-4)GlcNAc(b1-2)Man(a1-3)[GlcNAc(b1-3)Gal(b1-4)GlcNAc(b1-3)Gal(b1-4)GlcNAc(b1-3)Gal(b1-4)GlcNAc(b1-3)Gal(b1-4)GlcNAc(b1-2)Man(a1-6)]Man(b1-4)GlcNAc(b1-4)[Fuc(a1-6)]GlcNAc
# In short: as §1
# [14] = target: GlcNAc(b1-3)Gal(b1-4)GlcNAc(b1-3)Gal(b1-4)GlcNAc(b1-3)Gal(b1-4)GlcNAc(b1-3)Gal(b1-4)GlcNAc(b1-2)[GlcNAc(b1-3)Gal(b1-4)GlcNAc(b1-3)Gal(b1-4)GlcNAc(b1-3)Gal(b1-4)GlcNAc(b1-3)Gal(b1-4)GlcNAc(b1-6)]Man(a1-6)[GlcNAc(b1-3)Gal(b1-4)GlcNAc(b1-3)Gal(b1-4)GlcNAc(b1-3)Gal(b1-4)GlcNAc(b1-3)Gal(b1-4)GlcNAc(b1-2)Man(a1-3)]Man(b1-4)GlcNAc(b1-4)[Fuc(a1-6)]GlcNAc
# In short: as §1
# [15] = target: GlcNAc(b1-3)Gal(b1-4)GlcNAc(b1-3)Gal(b1-4)GlcNAc(b1-3)GalNAc
# In short: as §1
binder,measurement,setting,value
B1,glycan array binding signal (z-score),[1],-0.807
same,glycan array binding signal (z-score),[2],-0.079
same,glycan array binding signal (z-score),[3],0.6
same,glycan array binding signal (z-score),[4],0.064
same,glycan array binding signal (z-score),[5],-0.647
same,glycan array binding signal (z-score),[6],0.266
same,glycan array binding signal (z-score),[7],0.248
same,glycan array binding signal (z-score),[8],-0.507
same,glycan array binding signal (z-score),[9],1.34
same,glycan array binding signal (z-score),[10],2.21
same,glycan array binding signal (z-score),[11],0.25
same,glycan array binding signal (z-score),[12],0.045
same,glycan array binding signal (z-score),[13],1.1
same,glycan array binding signal (z-score),[14],0.731
same,glycan array binding signal (z-score),[15],-0.133

# Another view of some results above.
binder | measurement | setting | value
B1 | glycan array binding signal (z-score) | [2] | -0.079
same | glycan array binding signal (z-score) | [6] | 0.266
